Reference: PubChem BioAssay AID504764 (Drosophila RNAi Screening Center, 2011)
The deposit covers about 22,000 reagents; below is a random part of those with a known target gene and a result. Over the whole deposit, 403 (1.9%) are marked active. 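Unnormalised raw counts per well; ratio z-scores behind the hit calls and whether each hit raises or lowers signal are not deposited.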 Entries without a mark were called inactive. Reagents against one gene are numbered here. Names joined by + are all predicted targets of the reagent. Not stated in the record: the amount of reagent.

- Assay: 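Knock-downs that raise or lower a Notch target reporter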 (primary screen)
- Cell system: Drosophila Kc167 cells
- Knock-down reagent: long dsRNA against Drosophila genes
- Time to read-out: about 5 days (4 days dsRNA, then 24 h after transfection)
- Challenge: transfection of constitutively active membrane-tethered Notch lacking the extracellular domain, read 24 h later
- Detection: 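Firefly luciferase from an E(spl)m3 reporter with active Notch, plus control-promoter and uninduced reporter wells for normalisation; unnormalised counts, duplicate wells a and b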
- Direction: induced reporter light, run 1, well a and induced reporter light, run 1, well b: higher = more light from the Notch target reporter with active Notch; control promoter light, run 1, well a and control promoter light, run 1, well b: higher = more light from the viral control promoter (cell number, transfection, viability); uninduced reporter light, run 1, well a: higher = more light from the Notch target reporter without active Notch
- Rule for the call: 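Wells with low control signal or poorly matching duplicates excluded; duplicates averaged; per source plate, z beyond ±2 for induced/control log2 ratio or beyond ±1.8 for induced/uninduced marks a hit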
- Calls: active = modifier hit (raised or lowered Notch signal); inactive = not a hit

The opening 2 entries, to show the layout:
Target gene	reagent no.	induced reporter light, run 1, well a	induced reporter light, run 1, well b	control promoter light, run 1, well a	control promoter light, run 1, well b	uninduced reporter light, run 1, well a
CG31087	1	1.66e5	1.60e5	2.20e5	2.16e5	15005
CG13171	1	87805	95620	1.25e5	1.29e5	9205

The listing, repeating the preview:
Target gene	reagent no.	induced reporter light, run 1, well a	induced reporter light, run 1, well b	control promoter light, run 1, well a	control promoter light, run 1, well b	uninduced reporter light, run 1, well a
CG31087	1	1.66e5	1.60e5	2.20e5	2.16e5	15005
CG13171	1	87805	95620	1.25e5	1.29e5	9205
CG8778	1	90380	81010	1.26e5	1.08e5	8125
GV1	1	1.24e5	94730	1.82e5	1.58e5	5620
kn	1	2.69e5	1.96e5	3.00e5	3.74e5	18255
kn	2	2.00e5	1.75e5	3.19e5	3.13e5	19625
kn	3	73530	82835	91160	89605	6700
kn	4	77885	88945	1.09e5	99905	8470
Pex7	1	2.22e5	1.67e5	2.13e5	2.22e5	10665
Cyp9b1	1	2.00e5	2.32e5	2.54e5	2.26e5	16110
TfIIEbeta	1	77870	1.57e5	1.82e5	1.61e5	9925
CG16781	1	1.35e5	1.28e5	2.20e5	1.92e5	9980
CG10317	1	2.32e5	2.23e5	2.05e5	2.11e5	20530
CG14332	1	1.80e5	1.94e5	1.83e5	1.83e5	13100
ldd	1	71455	78645	90865	1.24e5	10565
Trf5	1	1.62e5	1.45e5	1.37e5	1.24e5	11025
PolG1	1	1.43e5	1.71e5	1.43e5	1.73e5	12455
CG10029	1	1.03e5	1.00e5	1.11e5	1.08e5	5665
CG31815	1	49720	71350	70055	72880	4820
SWIP	1	35290	32925	27620	26995	4395
Dys	1	1.18e5	1.14e5	1.55e5	1.33e5	12292
Dys	2	58835	53460	74790	71475	8795
Dys	3	1.82e5	1.60e5	2.05e5	2.09e5	12160
Dys	4	2.09e5	2.06e5	2.23e5	2.12e5	14840
Dys	5	1.65e5	1.56e5	1.90e5	1.74e5	12870
Dys	6	1.68e5	1.50e5	1.99e5	1.91e5	12680
Dys	7	1.92e5	1.68e5	2.33e5	1.77e5	14955
LKRSDH	1	89480	98200	84170	83260	6315
Gar1	1	45750	25195	38430	65965	2615
Prx6a	1	1.56e5 (active)	1.43e5	1.68e5	1.76e5	19940
COX8	1	1.67e5	1.08e5	1.08e5	1.32e5	9100
CG6885	1	1.86e5	1.65e5	2.68e5	2.14e5	10230
CG13605	1	1.94e5	1.63e5	2.59e5	2.45e5	14665
CG31802	1	1.46e5	1.62e5	1.29e5	1.67e5	12870
Pi3K92E	1	1.28e5	1.46e5	1.45e5	1.59e5	13565
Roe1	1	1.91e5	1.71e5	1.90e5	1.49e5	14020
Frq2	1	50380	55610	79115	58715	9500
mus201 + Chrac-14	1	1.48e5	1.84e5	1.06e5	1.29e5	22950
mus201 + Chrac-14	2	1.62e5	1.77e5	1.23e5	1.63e5	22450
Pglym87	1	1.27e5	1.38e5	69555	76390	9040
Nup35	1	99230	86035	84490	52015	8380
COX6CL	1	1.38e5	1.52e5	1.89e5	2.36e5	11335
Prp16	1	33190	55900	37115	27770	2255
Prp16	2	55960	50100	49160	57345	8400
Rrp6	1	21575	25265	23645	25190	1700
CG8086	1	64025	82440	77685	70815	7065
CG8086	2	1.77e5	1.97e5	1.13e5	1.34e5	21805
lncRNA:sphinx	1	63760	56475	84930	1.03e5	3855
CG34280	1	56730	60450	80685	73895	9195
amon	1	1.75e5	1.82e5	1.67e5	2.59e5	15845
amon	2	1.38e5	1.37e5	1.51e5	1.61e5	12070
